In patent EP1839675A1, “NOVEL METHOD OF PROTECTING ISCHEMIC CARDIOPATHY” (Japan Science and Technology Agency, priority 2004, dated 2006):
At least one compound was matched to its structure with a doubt left.

Test system: neonatal rat ventricular myocytes
Experiment: Cell viability (MTT) after ischemic treatment and post-ischemic reperfusion in primary cultures
Format: cell-based
Settings: DP plus NPPB 50 µM, glibenclamide 500 µM, gemfibrozil 2 mM or 9AC 2 mM during ischemic treatment; MTT after 96 hours reperfusion
Method: Primary cultures of ventricular myocytes were prepared from the hearts of neonatal rats by enzyme treatment. M199+10% FBS was used as culture medium. To reduce the number of contaminating non-myocardial cells, the medium was supplemented with 100 µM BrdU during incubation. The primary cell cultures of rat myocardial cells were subjected to ischemic treatment (removal of glucose and oxygen) and post-ischemic reperfusion according to the following procedures. The medium was replaced with a glucose-free solution, which contained 108 mM NaCl, 0.5 mM MgCl2, 5.4 mM KCl, 1mM CaCl2, and 5 mM HEPES (pH adjusted to 7.4 with NaHCO3), and were incubated at 37°C for 8 hours under anaerobic conditions, which were created by replacing air with a gas mixture of 95% Ar and 5% CO2. Immediately after incubation, the solution was replaced with a glucose-containing normal medium (M199+10% FBS), and then left in a CO2 incubator (95% air (20% O2), 5% CO2, 37°C) for 96 hours (reperfusion: re-supply of glucose/reoxygenation). Cl^- channel blocker (NPPB) was administered to the primary cell cultures of rat ventricular myocytes 1 hour prior to ischemic treatment, or at the start of ischemic treatment that lasted 8 hours. Cl- channel blocker (NPPB) was also administered over a time period of 18 hours after the start of post-ischemic reperfusion. Cell viability was assayed using MTT. […]

SMILES: O=C(O)c1c2ccccc2cc2ccccc12 [9AC, anthracene-9-carboxylate]
- effect of dbcAMP + PMA on cell viability under co-application of CFTR channel blocker: completely abolished
